Drawing on PMC5813005, this text covers binding for one substance.

Amino acid sequences for entries named in this document (tags omitted). A change or cut given only in a name is not applied to a line headed by its entry.
UniProt P54369: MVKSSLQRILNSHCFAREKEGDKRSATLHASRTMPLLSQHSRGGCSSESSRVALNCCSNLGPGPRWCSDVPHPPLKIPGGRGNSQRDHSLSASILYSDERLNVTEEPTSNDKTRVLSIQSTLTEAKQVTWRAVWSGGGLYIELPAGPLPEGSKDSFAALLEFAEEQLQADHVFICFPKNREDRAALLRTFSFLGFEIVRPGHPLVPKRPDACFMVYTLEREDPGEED
UniProt P00860: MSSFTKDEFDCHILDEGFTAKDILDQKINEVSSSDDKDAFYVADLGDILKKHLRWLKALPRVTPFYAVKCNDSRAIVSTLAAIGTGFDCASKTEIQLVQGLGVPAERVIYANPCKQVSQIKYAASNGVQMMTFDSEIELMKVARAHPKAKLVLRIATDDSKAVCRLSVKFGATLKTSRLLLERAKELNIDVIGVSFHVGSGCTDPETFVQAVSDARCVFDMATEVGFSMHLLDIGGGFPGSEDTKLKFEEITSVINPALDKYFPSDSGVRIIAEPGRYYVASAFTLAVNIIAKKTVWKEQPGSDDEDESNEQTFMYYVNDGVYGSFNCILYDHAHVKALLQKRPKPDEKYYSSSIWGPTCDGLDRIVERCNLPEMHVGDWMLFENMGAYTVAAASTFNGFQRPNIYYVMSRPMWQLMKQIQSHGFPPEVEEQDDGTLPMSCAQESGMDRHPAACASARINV
UniProt P01108: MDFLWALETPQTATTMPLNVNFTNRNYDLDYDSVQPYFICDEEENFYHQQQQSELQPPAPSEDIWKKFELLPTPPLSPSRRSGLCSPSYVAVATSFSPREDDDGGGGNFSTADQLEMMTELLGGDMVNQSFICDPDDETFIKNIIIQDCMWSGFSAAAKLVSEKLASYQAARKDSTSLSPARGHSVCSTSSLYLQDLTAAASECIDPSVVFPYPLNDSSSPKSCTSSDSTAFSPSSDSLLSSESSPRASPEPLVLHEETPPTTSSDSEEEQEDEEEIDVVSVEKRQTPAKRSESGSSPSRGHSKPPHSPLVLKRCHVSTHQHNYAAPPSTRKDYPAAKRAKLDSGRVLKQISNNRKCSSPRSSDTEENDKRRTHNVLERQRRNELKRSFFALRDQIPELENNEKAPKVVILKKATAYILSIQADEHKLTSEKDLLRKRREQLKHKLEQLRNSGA

Results are given in words; binding and its absence hold for the method and conditions named. Binding seen in cells or lysates may run through a third protein. For part of these data: A result given as binding can be weak or reduced; the word gives no strength. For part of these data: Tags and fused reporters may be left off the sequences shown.

Holding throughout (assay): co-IP; 293-F cells co-expressing HA-tagged and FLAG-tagged proteins, lysed in M-PER; anti-FLAG (M2)-agarose, 4 °C overnight; bound proteins detected by anti-HA immunoblot
For assay [1], the target named is FLAG-AZ1 (FLAG-tagged antizyme 1) (mouse) (UniProt P54369).
Assay [2] deals with T1, FLAG-AZ2 (FLAG-tagged antizyme 2) (mouse) (UniProt O08608).
T1 sequence: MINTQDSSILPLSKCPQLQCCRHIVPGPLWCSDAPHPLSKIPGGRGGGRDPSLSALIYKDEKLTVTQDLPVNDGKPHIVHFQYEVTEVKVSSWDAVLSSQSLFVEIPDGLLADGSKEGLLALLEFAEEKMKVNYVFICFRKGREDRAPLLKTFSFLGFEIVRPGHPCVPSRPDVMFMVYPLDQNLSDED

Assay [3] deals with FLAG-ODC (FLAG-tagged ornithine decarboxylase) (mouse) (UniProt P00860).

For the substance “HA-c-Myc (hemagglutinin epitope-tagged c-Myc) (from UniProt P01108)”, the binding result in assay [1] was “binds”; in assay [2], “binds”; in assay [3], “no binding”.
